The target in this experiment is GluA2 subunit of the AMPA receptor (endogenous, mouse spinal cord) (mouse), P23819. In words: co-IP and immunoblot, mouse spinal cord lysates. The note with it: remark: other sources report otherwise. In general terms: In western blotting, separated proteins are transferred to a membrane and probed.

These are yes or no findings as the source states them, for the method shown. In cells and extracts the contact can be indirect. Some entries that bind do so weakly or less than the wild type.

B1: PICK1 (endogenous, mouse spinal cord), Q62083 1-416 (protein, UniProt Q62083 1-416, looked up)
chain: MFADLDYDIEEDKLGIPTVPGKVTLQKDAQNLIGISIGGGAQYCPCLYIVQVFDNTPAALDGTVAAGDEITGVNGKSIKGKTKVEVAKMIQEVKGEVTIHYNKLQADPKQGMSLDIVLKKVKHRLVENMSSGTADALGLSRAILCNDGLVKRLEELERTAELYKGMTEHTKNLLRAFYELSQTHRAFGDVFSVIGVREPQPAASEAFVKFADAHRSIEKFGIRLLKTIKPMLTDLNTYLNKAIPDTRLTIKKYLDVKFEYLSYCLKVKEMDDEEYSCIGPRRALYRVSTGNYEYRLILRCRQEARARFSQMRKDVLEKMELLDQKHVQDIVFQLQRFVSTMSKYYNDCYAVLQDADVFPIEVDLAHTTLAYGPNQGSFTDGEEEDEEEEDGAAREVSKDACGATGPTDKGGSWCDS
In the case of B1, the binding entry is given as “binds”.

Values taken from patent publication US20210347821A1.
